# Assay results as given in PubChem BioAssay AID445 (National Center for Advancing Translational Sciences (NCATS), 2006).
# This is one part of the list. Shown are side measurements of this screen, not its main read-out; they come without a call. The list favours compounds with an active or inconclusive main result. Words in brackets tell the shape of the fitted curve; partial curves, single points and poor fits give uncertain potencies.
# Test: IkB Signaling
# Details: ABC-DLBCL IkBa-CBG/CBR dual luciferase ratio (green luciferase fused to IkBa over red control in OCI-Ly3 lymphoma cells), 4 h
# How it was run: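 In this assay, an IκBα–CBG68 fusion accumulates when IKK-driven degradation is blocked; native CBR normalizes for cell number. OCI-Ly3 cells were treated 4 h with compound and doxycycline, then green and red light read after Chroma-Glo addition.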
# [1] = measured here: control luc red channel unless noted
smiles,measurement,setting,value
CCCCCn1c(=O)[nH]c2cc(C(=O)Nc3cc(OC)cc(OC)c3)ccc2c1=O,AC50,[1],"2 µM [falling, full curve]"
Cc1ccc2oc(=O)c3cc(C(=O)N4CCN(c5ccccc5)CC4)sc3c2c1,AC50,[1],"10 µM [rising, partial curve]"
O=C(CSc1nnnn1C1CCCCC1)Nc1cccc(NC(=O)c2ccco2)c1,AC50,[1],"3.16 µM [falling, partial curve]"
CCC1CN(C(=O)NCc2ccc(C)cc2)c2cc(C)ccc2O1 (stereo not drawn),AC50,[1],"7.94 µM [falling, partial curve]"
COC(=O)c1ccc(OCC2c3cc(OC)c(OC)cc3CCN2C(=O)C2CC2)cc1 (stereo not drawn),AC50,[1],"15.8 µM [falling, partial curve]"
COc1cc2nc(SCc3ccc(Cl)cc3)n3nc(CCn4nc(C)cc4C)nc3c2cc1OC,AC50,[1],"1.26 µM [rising, full curve]"
COc1cc(C(=O)NCCc2ccc3c(c2)OCCO3)ccc1OCC(=O)N1CCOCC1,AC50,[1],"3.98 µM [falling, full curve, poor fit]"
COc1cc(C(=O)Nc2nnc(S(=O)(=O)N(C)c3ccccc3)s2)cc(OC)c1OC,AC50,[1],"2.51 µM [rising, partial curve]"
O=[N+]([O-])c1ccc2cn[nH]c2c1,AC50,[1],"3.16 µM [rising, full curve]"
Cc1ccc(-c2nc3n(n2)C(c2ccccc2C)C=C(c2ccc(Cl)cc2)N3)cc1 (stereo not drawn),AC50,[1],"12.6 µM [falling, partial curve]"
COc1cc(C(=O)NCC(c2ccc(N(C)C)cc2)N2CCc3ccccc32)cc(OC)c1OC (stereo not drawn),AC50,[1],"15.8 µM [falling, partial curve]"
COc1cc(OC)cc(-c2nc3nc(C)c(CCC(=O)O)c(C)n3n2)c1,AC50,[1],"7.94 µM [falling, full curve, poor fit]"
COc1cccc(Nc2ncc3ncc(=O)n(C[C@H]4CCCO4)c3n2)c1,AC50,measured here: IkB-luc green channel,"3.98 µM [falling, partial curve]"
same,AC50,measured here: control luc red channel,"3.98 µM [falling, partial curve]"
COc1ccc(CNC(=O)c2cc3c(=O)[nH]c4ccc(C)cc4c3s2)c(OC)c1,AC50,[1],"0.126 µM [falling, full curve, poor fit]"
Cc1ccn2c(Nc3ccc(F)cc3)c(-c3ccc(C)o3)nc2c1,AC50,[1],"20 µM [falling, partial curve]"
O=C(CSc1ncc(CO)n1Cc1ccccc1)Nc1nc2ccccc2s1,AC50,[1],"20 µM [falling, single point]"
Oc1ccccc1-c1nnc(COc2ccc(Cl)cc2Cl)o1,AC50,[1],"12.6 µM [falling, partial curve]"

# For convenience, some entries already given:
smiles,measurement,setting,value
COc1cc2nc(SCc3ccc(Cl)cc3)n3nc(CCn4nc(C)cc4C)nc3c2cc1OC,AC50,[1],"1.26 µM [rising, full curve]"
COc1cc(C(=O)NCCc2ccc3c(c2)OCCO3)ccc1OCC(=O)N1CCOCC1,AC50,[1],"3.98 µM [falling, full curve, poor fit]"
